Experimental data: PMC3197150
These are yes or no findings as the source states them, for the method shown. In cells and extracts the contact can be indirect. Some binding calls cover weakened binding; strength is not graded here. Where a sequence is shown, tags or fusion partners need not be part of it.

Sequences of proteins named here, by UniProt entry; tags and fusion partners are left off.
UniProt P38873: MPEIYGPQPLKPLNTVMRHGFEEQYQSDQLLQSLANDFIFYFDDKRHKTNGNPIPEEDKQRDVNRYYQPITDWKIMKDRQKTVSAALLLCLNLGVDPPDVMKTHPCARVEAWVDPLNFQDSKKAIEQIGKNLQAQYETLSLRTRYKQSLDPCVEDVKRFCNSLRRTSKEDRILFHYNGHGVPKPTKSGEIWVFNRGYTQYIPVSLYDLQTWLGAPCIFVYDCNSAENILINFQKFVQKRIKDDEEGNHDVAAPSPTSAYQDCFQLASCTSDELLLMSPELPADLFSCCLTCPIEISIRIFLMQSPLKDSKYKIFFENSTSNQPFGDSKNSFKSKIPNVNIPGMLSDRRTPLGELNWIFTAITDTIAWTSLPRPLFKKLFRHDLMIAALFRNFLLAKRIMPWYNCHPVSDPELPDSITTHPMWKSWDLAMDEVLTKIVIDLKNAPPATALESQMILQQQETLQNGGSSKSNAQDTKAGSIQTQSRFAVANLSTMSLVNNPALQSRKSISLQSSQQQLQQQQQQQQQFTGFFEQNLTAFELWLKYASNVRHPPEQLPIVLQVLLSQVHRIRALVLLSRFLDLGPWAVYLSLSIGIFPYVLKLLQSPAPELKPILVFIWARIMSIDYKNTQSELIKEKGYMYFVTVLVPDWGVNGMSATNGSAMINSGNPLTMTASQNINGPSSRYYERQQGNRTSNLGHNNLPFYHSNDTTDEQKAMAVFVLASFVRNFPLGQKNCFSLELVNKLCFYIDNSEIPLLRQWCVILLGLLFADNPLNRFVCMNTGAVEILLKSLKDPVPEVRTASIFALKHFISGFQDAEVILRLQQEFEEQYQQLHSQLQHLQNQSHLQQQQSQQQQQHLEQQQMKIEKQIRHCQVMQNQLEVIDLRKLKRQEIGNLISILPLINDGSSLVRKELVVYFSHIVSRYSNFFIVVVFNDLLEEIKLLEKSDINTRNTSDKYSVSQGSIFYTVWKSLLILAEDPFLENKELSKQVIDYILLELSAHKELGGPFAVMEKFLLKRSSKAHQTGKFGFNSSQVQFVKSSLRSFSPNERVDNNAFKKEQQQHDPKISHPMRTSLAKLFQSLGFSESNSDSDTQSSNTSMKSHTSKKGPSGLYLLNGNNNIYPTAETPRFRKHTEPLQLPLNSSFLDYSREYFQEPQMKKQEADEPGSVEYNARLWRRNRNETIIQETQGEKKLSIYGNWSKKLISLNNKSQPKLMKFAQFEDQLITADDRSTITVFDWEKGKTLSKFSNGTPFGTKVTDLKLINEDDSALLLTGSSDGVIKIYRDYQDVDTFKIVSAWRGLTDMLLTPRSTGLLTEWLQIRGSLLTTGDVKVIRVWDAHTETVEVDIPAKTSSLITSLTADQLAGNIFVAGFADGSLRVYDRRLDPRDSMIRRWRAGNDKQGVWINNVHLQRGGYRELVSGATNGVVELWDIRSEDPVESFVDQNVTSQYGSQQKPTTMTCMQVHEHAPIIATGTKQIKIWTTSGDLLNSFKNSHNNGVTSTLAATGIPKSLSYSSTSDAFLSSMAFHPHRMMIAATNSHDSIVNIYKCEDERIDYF

How the values were obtained:
Experiment in all cases: co-IP; HA-tagged protein immunoprecipitated with HA antibody from lysates of KOG1-FLAG strains (30-40 OD600 units of cells); KOG1-FLAG detected by Western blot with anti-Flag; control IPs from KOG1-FLAG strains without HA-tagged proteins
[1] = biological target: T1, Ksp1p, C-terminally HA-tagged (KSP1-HA) (S. cerevisiae) (UniProt P38691)
T1 sequence: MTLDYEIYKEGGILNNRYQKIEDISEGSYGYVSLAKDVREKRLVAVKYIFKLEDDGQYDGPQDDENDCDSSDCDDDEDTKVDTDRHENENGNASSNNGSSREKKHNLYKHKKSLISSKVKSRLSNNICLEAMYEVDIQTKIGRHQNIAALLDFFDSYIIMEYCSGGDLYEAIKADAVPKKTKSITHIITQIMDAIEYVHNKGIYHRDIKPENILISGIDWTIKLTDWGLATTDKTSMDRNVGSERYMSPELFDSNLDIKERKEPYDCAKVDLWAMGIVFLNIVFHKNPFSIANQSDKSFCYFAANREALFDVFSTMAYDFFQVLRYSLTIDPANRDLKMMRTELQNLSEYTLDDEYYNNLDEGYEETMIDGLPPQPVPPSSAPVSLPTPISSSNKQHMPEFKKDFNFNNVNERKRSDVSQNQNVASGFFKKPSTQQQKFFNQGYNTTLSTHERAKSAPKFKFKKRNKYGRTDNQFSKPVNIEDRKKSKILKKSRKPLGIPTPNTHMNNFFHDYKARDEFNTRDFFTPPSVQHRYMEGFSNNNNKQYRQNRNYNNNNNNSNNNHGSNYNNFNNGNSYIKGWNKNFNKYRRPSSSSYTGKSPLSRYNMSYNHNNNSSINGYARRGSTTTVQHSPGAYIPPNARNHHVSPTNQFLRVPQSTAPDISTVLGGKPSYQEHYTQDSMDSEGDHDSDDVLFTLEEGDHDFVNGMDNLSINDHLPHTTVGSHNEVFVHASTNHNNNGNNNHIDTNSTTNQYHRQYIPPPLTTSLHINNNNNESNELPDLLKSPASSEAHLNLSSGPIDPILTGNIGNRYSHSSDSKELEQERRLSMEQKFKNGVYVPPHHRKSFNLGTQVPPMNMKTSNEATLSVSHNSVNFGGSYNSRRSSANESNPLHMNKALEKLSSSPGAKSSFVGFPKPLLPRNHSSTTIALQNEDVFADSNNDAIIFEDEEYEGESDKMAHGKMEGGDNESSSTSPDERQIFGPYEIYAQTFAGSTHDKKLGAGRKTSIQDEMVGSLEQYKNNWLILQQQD

[2] = biological target: T2, Mks1p, C-terminally HA-tagged (MKS1-HA) (S. cerevisiae) (UniProt P34072)
T2 sequence: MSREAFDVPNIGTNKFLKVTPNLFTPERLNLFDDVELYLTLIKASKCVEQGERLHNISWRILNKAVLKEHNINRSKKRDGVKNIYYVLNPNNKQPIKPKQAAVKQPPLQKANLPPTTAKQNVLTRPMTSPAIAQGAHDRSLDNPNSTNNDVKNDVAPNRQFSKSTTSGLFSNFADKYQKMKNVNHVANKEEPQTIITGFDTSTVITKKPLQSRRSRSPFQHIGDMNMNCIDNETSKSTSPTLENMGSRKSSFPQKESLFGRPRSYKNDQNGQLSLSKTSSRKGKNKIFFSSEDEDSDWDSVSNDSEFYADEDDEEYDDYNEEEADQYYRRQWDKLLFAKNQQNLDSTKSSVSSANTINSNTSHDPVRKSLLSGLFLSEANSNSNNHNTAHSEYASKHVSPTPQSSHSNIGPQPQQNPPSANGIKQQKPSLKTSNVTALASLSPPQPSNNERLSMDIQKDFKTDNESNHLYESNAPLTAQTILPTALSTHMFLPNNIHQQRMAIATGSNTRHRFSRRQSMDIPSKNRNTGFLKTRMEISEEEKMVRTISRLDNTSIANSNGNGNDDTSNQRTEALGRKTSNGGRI

[3] = biological target: T3, Kap123p, C-terminally HA-tagged (KAP123-HA) (S. cerevisiae) (UniProt P40069)
T3 sequence: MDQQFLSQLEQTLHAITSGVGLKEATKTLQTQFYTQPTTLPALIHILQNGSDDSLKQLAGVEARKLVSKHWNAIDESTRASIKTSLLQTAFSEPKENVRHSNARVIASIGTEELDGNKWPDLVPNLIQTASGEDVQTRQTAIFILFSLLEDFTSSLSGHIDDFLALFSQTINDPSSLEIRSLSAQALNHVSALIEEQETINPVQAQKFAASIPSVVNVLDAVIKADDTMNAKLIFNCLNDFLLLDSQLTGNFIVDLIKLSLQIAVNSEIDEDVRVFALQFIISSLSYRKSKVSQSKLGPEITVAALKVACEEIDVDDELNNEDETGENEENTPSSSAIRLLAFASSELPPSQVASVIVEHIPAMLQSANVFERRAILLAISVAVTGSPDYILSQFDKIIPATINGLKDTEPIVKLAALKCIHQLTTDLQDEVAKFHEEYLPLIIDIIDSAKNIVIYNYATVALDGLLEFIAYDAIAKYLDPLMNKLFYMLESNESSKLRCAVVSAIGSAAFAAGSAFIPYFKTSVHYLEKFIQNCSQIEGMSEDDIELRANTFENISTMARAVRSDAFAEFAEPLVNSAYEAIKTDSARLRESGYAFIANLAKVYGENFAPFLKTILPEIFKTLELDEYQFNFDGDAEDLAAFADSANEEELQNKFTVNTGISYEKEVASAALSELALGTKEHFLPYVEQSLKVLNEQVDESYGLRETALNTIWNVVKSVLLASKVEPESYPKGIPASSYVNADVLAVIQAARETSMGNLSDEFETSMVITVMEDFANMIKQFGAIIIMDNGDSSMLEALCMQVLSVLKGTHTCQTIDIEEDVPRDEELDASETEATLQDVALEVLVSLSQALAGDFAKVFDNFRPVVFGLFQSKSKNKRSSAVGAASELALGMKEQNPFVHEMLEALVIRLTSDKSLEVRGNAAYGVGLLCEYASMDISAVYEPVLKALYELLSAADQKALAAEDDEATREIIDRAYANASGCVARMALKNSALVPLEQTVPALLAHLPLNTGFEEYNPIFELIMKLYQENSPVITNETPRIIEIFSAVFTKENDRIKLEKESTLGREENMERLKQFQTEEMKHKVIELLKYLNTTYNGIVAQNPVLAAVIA

[4] = biological target: T4, Hef3p, C-terminally HA-tagged (HEF3-HA) (S. cerevisiae) (UniProt P53978)
T4 sequence: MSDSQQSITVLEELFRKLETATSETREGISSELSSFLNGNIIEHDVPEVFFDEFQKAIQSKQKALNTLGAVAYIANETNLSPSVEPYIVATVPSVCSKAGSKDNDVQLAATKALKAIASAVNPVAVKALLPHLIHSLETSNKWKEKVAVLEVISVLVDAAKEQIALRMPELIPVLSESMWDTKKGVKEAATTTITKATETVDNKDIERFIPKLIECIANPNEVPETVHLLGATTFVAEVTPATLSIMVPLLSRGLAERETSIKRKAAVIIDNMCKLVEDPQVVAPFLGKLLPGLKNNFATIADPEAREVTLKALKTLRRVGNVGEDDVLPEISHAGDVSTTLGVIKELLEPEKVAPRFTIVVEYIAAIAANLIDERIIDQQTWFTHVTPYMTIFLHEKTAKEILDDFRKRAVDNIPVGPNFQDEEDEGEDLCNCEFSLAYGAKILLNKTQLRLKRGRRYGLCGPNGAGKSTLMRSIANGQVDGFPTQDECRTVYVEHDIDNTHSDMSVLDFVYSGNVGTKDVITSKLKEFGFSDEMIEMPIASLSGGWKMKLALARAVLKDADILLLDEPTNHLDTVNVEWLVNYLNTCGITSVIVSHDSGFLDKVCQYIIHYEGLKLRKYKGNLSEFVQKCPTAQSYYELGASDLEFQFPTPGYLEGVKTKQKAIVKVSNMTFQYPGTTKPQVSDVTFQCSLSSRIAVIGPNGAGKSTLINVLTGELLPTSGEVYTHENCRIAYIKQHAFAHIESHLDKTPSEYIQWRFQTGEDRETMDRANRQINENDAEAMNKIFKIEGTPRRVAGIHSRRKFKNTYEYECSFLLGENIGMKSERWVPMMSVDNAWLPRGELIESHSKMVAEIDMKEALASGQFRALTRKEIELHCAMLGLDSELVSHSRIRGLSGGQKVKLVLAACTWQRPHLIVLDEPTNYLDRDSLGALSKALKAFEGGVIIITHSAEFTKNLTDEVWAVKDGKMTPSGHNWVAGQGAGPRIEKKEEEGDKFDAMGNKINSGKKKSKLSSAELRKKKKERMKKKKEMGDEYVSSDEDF

[5] = biological target: T5, Uba4p, C-terminally HA-tagged (UBA4-HA) (S. cerevisiae) (UniProt P38820)
T5 sequence: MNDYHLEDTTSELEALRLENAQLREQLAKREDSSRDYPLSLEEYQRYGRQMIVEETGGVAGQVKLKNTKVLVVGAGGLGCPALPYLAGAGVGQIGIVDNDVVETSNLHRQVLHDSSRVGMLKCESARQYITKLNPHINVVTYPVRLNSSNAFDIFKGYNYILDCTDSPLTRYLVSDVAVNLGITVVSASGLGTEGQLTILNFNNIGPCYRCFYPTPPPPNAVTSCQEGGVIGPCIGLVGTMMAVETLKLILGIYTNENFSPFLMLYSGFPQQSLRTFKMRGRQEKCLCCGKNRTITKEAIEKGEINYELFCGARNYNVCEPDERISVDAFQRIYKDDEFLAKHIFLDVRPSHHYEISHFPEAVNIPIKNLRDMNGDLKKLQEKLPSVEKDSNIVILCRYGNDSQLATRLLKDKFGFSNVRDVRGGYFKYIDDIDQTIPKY

binding [1]: binds | binding [2]: binds | binding [3]: binds | binding [4]: binds | binding [5]: binds
Substance: Kog1p, C-terminally FLAG-tagged (KOG1-FLAG) (from UniProt P38873 1-1557)
